The values below come from patent US20180087118A1.

The experiment concerns the target T1, H-TKQTARK(Me3)STGGKAPR-OH (TR-15, H3 3-17 K9me3 peptide).
T1 sequence (peptide, K(Me3), trimethyl-lysine at histone H3 K9 (7th residue of the peptide)): TKQTARKSTGGKAPR
Kind of experiment: co-crystal structure, 1.87 Å.

Results are given in words; binding and its absence hold for the method and conditions named. Binding can be weak; no strength is given.

“Human KDM4B 1-348 (His6-tagged, expressed in E. coli from pET28a) (enzyme)”: the binding result is reported as “binds”.
